Source: the supplement of paper PMC10382679
Single values of this set are uncertain.

B1: Rpb7; numbered along this chain (parent)
chain: MFFIKDLSLNITLHPSFFGPRMKQYLKTKLLEEVEGSCTGKFGYILCVLDYDNIDIQRGRILPTDGSAEFNVKYRAVVFKPFKGEVVDGTVVSCSQHGFEVQVGPMKVFVTKHLMPQDLTFNAGSNPPSYQSSEDVITIKSRIRVKIEGCISQVSSIHAIGSIKEDYLGAI

Key:
[1] = variants of: B1; assay: log2 fold change of mutant abundance, UV-irradiated vs unirradiated; higher = more UV resistant (enriched after UV); conditions: with Saccharomyces cerevisiae rad7Δ rad26Δ; UV dose (J/m2): 10; genetic background: rad7Δ rad26Δ rpb7Δ + plasmid RPB7 library; outgrowth: 10 cell divisions
[2] = variants of: B1; assay: NOISeq theta enrichment statistic, UV-irradiated vs unirradiated (dimensionless); higher = more UV resistant (enriched after UV); conditions: with Saccharomyces cerevisiae rad7Δ rad26Δ; UV dose (J/m2): 10; genetic background: rad7Δ rad26Δ rpb7Δ + plasmid RPB7 library; outgrowth: 10 cell divisions

Variant	log2 fold change of mutant abundance [1]	NOISeq theta enrichment statistic [2]
E69K	0.0205	0.0536
E69R	-0.0492	-0.042
E69H	0.84	0.43
S37R	-0.149	-0.173
S37T	-0.245	-0.939
S37C	-0.128	-0.111
S37L	0.101	0.334
T111R	-0.0273	-0.0498
T111G	0.116	0.109
T111A	0.0515	0.19
D65I	0.294	0.188
H113R	0.164	0.582
H113E	0.256	0.249
A68P	0.0545	0.101
A68N	1.36	0.699
A76G	0.14	0.187
L46S	0.217	0.136
L46P	0.148	0.233
S162K	0.104	0.0903
S162W	0.11	0.11
S162C	-0.0699	-0.157
G59W	0.216	0.405
G59R	-0.48	-1.14
E100W	0.507	0.291

Variant	log2 fold change of mutant abundance [1]	NOISeq theta enrichment statistic [2]
E100C	0.777	0.512
V72F	0.0978	0.0835
V108T	0.412	0.298
V108I	-0.00687	-0.0219
V108K	1.1	0.523
N53T	0.0449	0.0805
I54L	-0.0544	-0.251
I54R	0.397	0.454
V103T	-0.079	-0.074
V103M	0.298	0.297
I139N	-0.433	-0.287
I139R	-0.0609	-0.0877
I139T	0.017	0.0485
S141C	-0.00608	-0.0237
S141T	0.067	0.104
V110Q	-0.372	-0.241
V110I	0.00671	0.00511
T12P	-0.124	-0.171
P63H	-0.131	-0.529
S93V	-0.0396	-0.0444
S93F	0.102	0.116
Y51C	0.106	0.38
Q117E	0.0155	0.0303
D118N	-0.0963	-0.22

Variant	log2 fold change of mutant abundance [1]	NOISeq theta enrichment statistic [2]
E32S	0.195	0.115
R58L	0.225	0.799
L13V	-0.713	-0.675
L13I	-0.258	-0.704
V136I	0.0196	0.0464
V136T	-0.445	-0.21
V136N	-0.0973	-0.048
K83V	0.384	0.267
V48I	0.146	0.437
V48D	0.191	0.256
C94N	0.25	0.153
C94H	0.147	0.109
T90S	-0.00471	-0.0199
T90D	-0.241	-0.189
T90R	-0.0313	-0.0933
A170E	-1.23	-0.649
E85S	0.0206	0.0142
K5L	-1.05	-0.51
K5Q	0.0607	0.0757
D52L	-0.0151	-0.00816
D52F	0.299	0.241
P81V	-0.105	-0.0653
P81K	-0.0369	-0.0332
G169V	-0.134	-0.155

In another format: entries from further up.
Variant,log2 fold change of mutant abundance [1],NOISeq theta enrichment statistic [2]
T111R,-0.0273,-0.0498
T111G,0.116,0.109
T111A,0.0515,0.19
D65I,0.294,0.188
H113R,0.164,0.582
H113E,0.256,0.249
A68P,0.0545,0.101
A68N,1.36,0.699
A76G,0.14,0.187
L46S,0.217,0.136
L46P,0.148,0.233
S162K,0.104,0.0903
S162W,0.11,0.11
S162C,-0.0699,-0.157
G59W,0.216,0.405
G59R,-0.48,-1.14
E100W,0.507,0.291
E100C,0.777,0.512
V72F,0.0978,0.0835
V108T,0.412,0.298
V108I,-0.00687,-0.0219
V108K,1.1,0.523
I54L,-0.0544,-0.251
I54R,0.397,0.454
V103T,-0.079,-0.074
V103M,0.298,0.297
I139N,-0.433,-0.287
I139R,-0.0609,-0.0877
I139T,0.017,0.0485
S141C,-0.00608,-0.0237
S141T,0.067,0.104
V110Q,-0.372,-0.241
V110I,0.00671,0.00511
T12P,-0.124,-0.171
P63H,-0.131,-0.529
S93V,-0.0396,-0.0444
S93F,0.102,0.116
Y51C,0.106,0.38
Q117E,0.0155,0.0303
D118N,-0.0963,-0.22
E32S,0.195,0.115
L13V,-0.713,-0.675
L13I,-0.258,-0.704
V136I,0.0196,0.0464
V136T,-0.445,-0.21
V136N,-0.0973,-0.048
K83V,0.384,0.267
V48I,0.146,0.437
V48D,0.191,0.256
C94N,0.25,0.153
C94H,0.147,0.109
T90S,-0.00471,-0.0199
T90D,-0.241,-0.189
T90R,-0.0313,-0.0933
A170E,-1.23,-0.649
E85S,0.0206,0.0142
K5Q,0.0607,0.0757
D52L,-0.0151,-0.00816
D52F,0.299,0.241
P81V,-0.105,-0.0653
P81K,-0.0369,-0.0332
G169V,-0.134,-0.155

(listing goes on)

Variant	log2 fold change of mutant abundance [1]	NOISeq theta enrichment statistic [2]
G169Y	1.58	0.639
Q57Y	-0.0236	-0.0213
C38Y	-0.421	-0.976
R60I	0.0474	0.164
R60G	-0.0899	-0.344
R60V	-0.0622	-0.0361
N126A	0.035	0.0178
N126G	0.401	0.204
N71T	0.0333	0.111
N71A	0.0886	0.0655
N71D	0.0406	0.117
N71C	-0.427	-0.316
N71R	0.00615	0.00643
L62K	0.316	0.205
A123K	0.0667	0.0502
A123V	-0.196	-0.573
A123D	0.0996	0.0993
G84V	0.00913	0.0276
G84A	-0.165	-0.162
F109C	0.0831	0.251
F109M	-0.0673	-0.0628
Y44K	-0.879	-0.412
G43S	-0.337	-0.231
T39V	0.745	0.36

Variant	log2 fold change of mutant abundance [1]	NOISeq theta enrichment statistic [2]
T39Y	0.33	0.164
G104N	0.214	0.198
G104Y	0.0981	0.0717
L31C	-0.329	-0.185
L31R	0.982	0.742
L31M	0.0777	0.409
H97I	0.0985	0.168
R144W	0.166	0.137
L26Q	-0.0127	-0.0212
L26S	-0.192	-0.0824
G89Y	0.125	0.106
G89A	0.0124	0.0278
D166Y	-0.196	-0.293
V77A	-0.126	-0.233
V77D	0.449	0.352
I151M	0.345	0.449
M22W	-0.424	-0.337
F18N	-0.921	-0.442
F18L	0.146	0.858
G161A	0.299	0.384
G161V	0.41	0.372
S16F	-0.124	-0.212
I157T	-0.0363	-0.0984
I157K	0.187	0.096

Variant	log2 fold change of mutant abundance [1]	NOISeq theta enrichment statistic [2]
Y74E	-0.127	-0.096
Y74Q	1.52	0.64
I171V	-0.0587	-0.198
D50E	0.0652	0.163
D50Y	0.121	0.298
D50S	0.107	0.0898
G98E	-0.0228	-0.131
G98T	0.081	0.0514
M106H	0.252	0.181
M106G	-0.222	-0.182
C150W	-0.278	-0.304
C150F	-0.514	-0.54
C150Y	-0.605	-1.11
K41Q	0.283	0.34
S129F	-0.438	-0.321
S129K	0.572	0.325
M115R	0.00418	0.0117
I143F	-0.396	-0.498
H14D	-0.475	-0.418
H14L	-0.132	-0.269
P128T	-0.118	-0.336
P128Q	0.117	0.502
P128H	-0.217	-0.191
P15Q	-0.168	-0.486

Variant	log2 fold change of mutant abundance [1]	NOISeq theta enrichment statistic [2]
K140G	-0.472	-0.171
V101R	0.0538	0.123
H158P	0.111	0.15
H158Y	-0.229	-0.584
H158C	-0.264	-0.142
G36R	0.0056	0.00516
S125P	-0.117	-0.373
Q24H	0.176	0.775
Q24L	0.0357	0.132
A159E	0.239	0.349
Q131T	-0.869	-0.603
Q131K	0.469	1.53
S95P	0.0264	0.0378
S95A	0.0241	0.0385
V145D	-0.0989	-0.131
V145I	0.3	0.678
F121N	-0.437	-0.327
F121A	0.31	0.212
F121Y	0.0266	0.181
F121M	-0.0907	-0.0617
I11Y	-0.8	-0.351
R21Q	0.00867	0.0409
R21S	-0.0949	-0.0548
R21H	-0.864	-0.455

Variant	log2 fold change of mutant abundance [1]	NOISeq theta enrichment statistic [2]
P20T	0.0935	0.181
G124D	0.737	1.8
G124N	0.445	0.3
S132D	-0.355	-0.22
I61S	-0.0862	-0.0592
I61V	-0.171	-0.557
I61T	-0.128	-0.257
I61R	0.0697	0.0822
I61E	-1.13	-0.611
S133A	0.0812	0.157
V34A	0.0752	0.307
R142K	0.0298	0.0639
F70Y	-0.231	-0.755
F70P	-0.404	-0.219
C47V	-0.015	-0.0175
C47Y	0.114	0.348
P105H	0.0871	0.157
P105R	0.142	0.275
P105E	-0.111	-0.0846
I56M	-0.00564	-0.00855
I56F	0.0624	0.251
I56C	-0.326	-0.233
I56T	0.0851	0.271
I56D	0.131	0.0773

Variant	log2 fold change of mutant abundance [1]	NOISeq theta enrichment statistic [2]
S67F	-0.027	-0.104
S67I	-0.0813	-0.0444
Q102M	0.641	0.463
L9P	-0.0168	-0.0191
Y130L	0.221	0.148
T120R	0.414	0.283
K80N	-0.0508	-0.286
V86Q	0.11	0.0879
V86R	-0.0732	-0.0691
K27S	0.158	0.0888
K27M	0.0503	0.217
V87M	0.0482	0.18
V87G	0.0269	0.085
R75V	0.0546	0.0505
I45Y	-0.375	-0.177
T28A	-0.0495	-0.192
V154A	-0.594	-1.7
K112A	0.172	0.128
K112N	0.0484	0.195
K112W	0.108	0.0661
D88F	-0.0753	-0.0607
D88P	0.437	0.326
D88R	-0.165	-0.124
D88E	-0.0918	-0.814

Variant	log2 fold change of mutant abundance [1]	NOISeq theta enrichment statistic [2]
L168G	-0.681	-0.24
L168I	-1.23	-0.685
L168Q	-0.37	-0.152
S152R	0.0445	0.206
S152I	-0.0734	-0.127
S152K	-0.539	-0.28
S152Y	-0.384	-0.182
Y167H	-0.16	-0.288
Y167S	-0.322	-0.264
F42L	0.179	0.851
D6A	0.0895	0.104
D6H	-0.276	-0.302
D6Y	0.0444	0.0803
S155C	0.0557	0.315
S155N	-0.256	-0.708
